Assay results: US6548497B2, “Methods of reducing non-inflammatory pain” (Allergan Sales, Inc., priority 1999, dated 2003)
For at least one compound, name, drawing or mass did not settle the structure.

Experiments:
Type in all cases: cell-based
A. niger ATCC 16404 [1] = assay: Abbreviated preservative efficacy test, fungal survivors (Compositions 1 to 11); conditions: in the composition, Compositions 1 to 8
C. albicans ATCC 10231 = assay: Preservative efficacy test, survivors (Compositions 12 to 17); conditions: in the composition
A. niger ATCC 16404 [2] = assay: as above; conditions: in the composition

CC1COc2c(N3CCN(C)CC3)c(F)cc3c(=O)c(C(=O)O)cn1c23 (stereo not drawn) [ofloxacin]
antifungal (fungistatic) activity against A. niger population increase (A. niger ATCC 16404 [1]): sufficient fungistatic activity to act as a preservative for the composition against A. niger contamination | antifungal (fungistatic) activity against C. albicans population increase (C. albicans ATCC 10231): sufficient fungistatic activity to act as a preservative for the composition against C. albicans and A. niger contamination | antifungal (fungistatic) activity against A. niger population increase (A. niger ATCC 16404 [2]): sufficient fungistatic activity to act as a preservative for the composition against C. albicans and A. niger contamination
